Results from patent US8394795B2, “Pyrazole [3, 4-B] pyridine Raf inhibitors” (Array BioPharma Inc., priority 2008, dated 2013).
Some results were stated once for a whole list of compounds, not compound by compound.

Amino acid sequences for entries named in this document (tags omitted).
UniProt P15056, whole entry V600E: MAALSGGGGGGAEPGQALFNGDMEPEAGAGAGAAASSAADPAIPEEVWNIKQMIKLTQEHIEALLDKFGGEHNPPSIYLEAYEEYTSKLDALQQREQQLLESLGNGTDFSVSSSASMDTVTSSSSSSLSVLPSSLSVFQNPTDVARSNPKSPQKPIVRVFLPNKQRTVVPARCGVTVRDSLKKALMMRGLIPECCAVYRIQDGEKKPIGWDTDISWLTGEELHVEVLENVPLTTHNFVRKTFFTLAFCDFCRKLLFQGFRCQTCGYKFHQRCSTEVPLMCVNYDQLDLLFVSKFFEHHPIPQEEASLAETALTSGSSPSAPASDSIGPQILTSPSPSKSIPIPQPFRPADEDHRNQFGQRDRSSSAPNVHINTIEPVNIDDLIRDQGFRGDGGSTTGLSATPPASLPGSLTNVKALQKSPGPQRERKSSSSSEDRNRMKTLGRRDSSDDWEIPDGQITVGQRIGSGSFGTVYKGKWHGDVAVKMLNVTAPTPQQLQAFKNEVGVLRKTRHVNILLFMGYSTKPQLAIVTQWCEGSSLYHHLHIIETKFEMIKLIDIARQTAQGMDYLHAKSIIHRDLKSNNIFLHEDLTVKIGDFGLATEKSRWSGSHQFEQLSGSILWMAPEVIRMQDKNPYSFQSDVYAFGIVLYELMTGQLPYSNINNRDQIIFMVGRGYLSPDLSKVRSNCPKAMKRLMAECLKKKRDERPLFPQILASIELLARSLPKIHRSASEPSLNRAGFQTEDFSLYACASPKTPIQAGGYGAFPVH

Target: T1, V600E full-length B-Raf (Homo sapiens, UniProt P15056, V600E)
T1 construct: 20 nM V600E full-length B-Raf; made in house; host or cells: Sf9 insect cells (baculovirus)
Experiment: B-Raf IC50 Assay
Format: biochemical
Conditions: incorporation of radio labeled phosphate from [γ-33P]ATP into FSBA-modified wild-type MEK; 4 μM ATP, 20 nM V600E full-length B-Raf, 22° C., 60-minute incubation

CCCS(=O)(=O)Nc1ccc(F)c(C(=O)Nc2cnc3[nH]nc(-c4ccco4)c3c2)c1F [Example 10, 2,6-difluoro-N-(3-(furan-2-yl)-1H-pyrazolo[3,4-b]pyridin-5-yl)-3-(propylsulfonamido)benzamide]
IC50: < 1 µM

COc1n[nH]c2ncc(NC(=O)c3c(F)ccc(NS(=O)(=O)CC(C)C)c3F)cc12 [Example 141, 2,6-difluoro-N-(3-methoxy-1H-pyrazolo[3,4-b]pyridin-5-yl)-3-(2-methylpropylsulfonamido) benzamide]
IC50: < 1 µM

CCCS(=O)(=O)Nc1ccc(F)c(C(=O)Nc2cnc3[nH]nc(Br)c3c2)c1F [Example 18, N-(3-bromo-1H-pyrazolo[3,4-b]pyridin-5-yl)-2,6-difluoro-3-(propylsulfonamido)benzamide]
IC50: < 1 µM

CCCS(=O)(=O)Nc1ccc(F)c(C(=O)Nc2cnc3[nH]nc(N4CCCC4)c3c2)c1F [Example 117, 2,6-difluoro-3-(propylsulfonamido)-N-(3-(pyrrolidin-1-yl)-1H-pyrazolo[3,4-b]pyridin-5-yl)benzamide]
IC50: < 1 µM

CCCS(=O)(=O)Nc1ccc(F)c(C(=O)Nc2cnc3[nH]nc(CC(F)(F)F)c3c2)c1F [Example 65, 2,6-difluoro-3-(propylsulfonamido)-N-(3-(2,2,2-trifluoroethyl)-1H-pyrazolo[3,4-b]pyridin-5-yl)benzamide]
IC50: < 1 µM

O=C(Nc1cnc2[nH]nc(Br)c2c1)c1c(F)ccc(NS(=O)(=O)CCCF)c1F [Example 111, N-(3-bromo-1H-pyrazolo[3,4-b]pyridin-5-yl)-2,6-difluoro-3-(3-fluoropropylsulfonamido) benzamide]
IC50: < 1 µM

CCCS(=O)(=O)Nc1ccc(Cl)c(C(=O)Nc2cnc3[nH]nc(OCC4COC4)c3c2)c1F [Example 86, 6-chloro-2-fluoro-N-(3-(oxetan-3-ylmethoxy)-1H-pyrazolo[3,4-b]pyridin-5-yl)-3-(propylsulfonamido)benzamide]
IC50: < 1 µM

CCCS(=O)(=O)Nc1ccc(F)c(C(=O)Nc2cnc3[nH]nc(-c4cccc(OCC5COC(C)(C)O5)c4)c3c2)c1F (stereo not drawn) [Example 16, N-(3-(3-((2,2-dimethyl-1,3-dioxolan-4-yl)methoxy)phenyl)-1H-pyrazolo[3,4-b]pyridin-5-yl)-2,6-difluoro-3-(propylsulfonamido)benzamide]
IC50: < 1 µM

CCCS(=O)(=O)Nc1ccc(Cl)c(C(=O)Nc2cnc3[nH]ncc3c2)c1F [Example 98, 6-chloro-2-fluoro-3-(propylsulfonamido)-N-(1H-pyrazolo[3,4-b]pyridin-5-yl)benzamide]
IC50: < 1 µM

CCCS(=O)(=O)Nc1ccc(F)c(C(=O)Nc2cnc3[nH]nc(OCCOC)c3c2)c1F [Example 69, 2,6-difluoro-N-(3-(2-methoxyethoxy)-1H-pyrazolo[3,4-b]pyridin-5-yl)-3-(propylsulfonamido)benzamide]
IC50: < 1 µM

CCCS(=O)(=O)Nc1ccc(F)c(C(=O)Nc2cnc3[nH]ncc3c2)c1F [Example 1, 2,6-difluoro-3-(propylsulfonamido)-N-(1H-pyrazolo[3,4-b]pyridin-5-yl)benzamide]
IC50: < 1 µM

CCCS(=O)(=O)Nc1ccc(F)c(C(=O)Nc2cnc3[nH]nc(-c4cccc(CN(C)C)c4)c3c2)c1F [Example 34, N-(3-(3-((dimethylamino)methyl)phenyl)-1H-pyrazolo[3,4-b]pyridin-5-yl)-2,6-difluoro-3-(propylsulfonamido) benzamide]
IC50: < 1 µM

CCCS(=O)(=O)Nc1ccc(F)c(C(=O)Nc2cnc3[nH]nc(SC)c3c2)c1F [Example 50, 2,6-difluoro-N-(3-(methylthio)-1H-pyrazolo[3,4-b]pyridin-5-yl)-3-(propylsulfonamido)benzamide]
IC50: < 1 µM

CCS(=O)(=O)Nc1ccc(Cl)c(C(=O)Nc2cnc3[nH]nc(OC)c3c2)c1F [Example 72, 6-chloro-3-(ethylsulfonamido)-2-fluoro-N-(3-methoxy-1H-pyrazolo[3,4-b]pyridin-5-yl)benzamide]
IC50: < 1 µM

CCCS(=O)(=O)Nc1ccc(F)c(C(=O)Nc2cnc3[nH]nc(-c4cccc(F)c4F)c3c2)c1F [Example 28, N-(3-(2,3-difluorophenyl)-1H-pyrazolo[3,4-b]pyridin-5-yl)-2,6-difluoro-3-(propylsulfonamido) benzamide]
IC50: < 1 µM

CCCS(=O)(=O)Nc1ccc(F)c(C(=O)Nc2cnc3[nH]nc(CO)c3c2)c1F [Example 64, 2,6-difluoro-N-(3-(hydroxymethyl)-1H-pyrazolo[3,4-b]pyridin-5-yl)-3-(propylsulfonamido)benzamide]
IC50: < 1 µM

CCCS(=O)(=O)Nc1ccc(F)c(C(=O)Nc2cnc3[nH]nc(-c4ccccc4)c3c2)c1F [Example 3, 2,6-difluoro-N-(3-phenyl-1H-pyrazolo[3,4-b]pyridin-5-yl)-3-(propylsulfonamido)benzamide]
IC50: < 1 µM

CCCS(=O)(=O)Nc1ccc(F)c(C(=O)Nc2cnc3[nH]nc(-c4ccncc4)c3c2)c1F [Example 30, 2,6-difluoro-3-(propylsulfonamido)-N-(3-(pyridin-4-yl)-1H-pyrazolo[3,4-b]pyridin-5-yl) benzamide]
IC50: < 1 µM

CCCS(=O)(=O)Nc1ccc(F)c(C(=O)Nc2cnc3[nH]nc(C4CCCC4)c3c2)c1F [Example 13, N-(3-cyclopentyl-1H-pyrazolo[3,4-b]pyridin-5-yl)-2,6-difluoro-3-(propylsulfonamido)benzamide]
IC50: < 1 µM

CCCS(=O)(=O)Nc1ccc(F)c(C(=O)Nc2cnc3[nH]nc(C4CC4(F)F)c3c2)c1F (racemic) [Example 53]
IC50: < 1 µM

CCCS(=O)(=O)Nc1ccc(Cl)c(C(=O)Nc2cnc3[nH]nc(C4CC4)c3c2)c1F [Example 45, 6-chloro-N-(3-cyclopropyl-1H-pyrazolo[3,4-b]pyridin-5-yl)-2-fluoro-3-(propylsulfonamido)benzamide]
IC50: < 1 µM

CCCS(=O)(=O)Nc1ccc(F)c(C(=O)Nc2cnc3[nH]nc(CC)c3c2)c1F [Example 6, N-(3-ethyl-1H-pyrazolo[3,4-b]pyridin-5-yl)-2,6-difluoro-3-(propylsulfonamido)benzamide]
IC50: < 1 µM

CCCS(=O)(=O)Nc1ccc(F)c(C(=O)Nc2cnc3[nH]nc(C4CNC4)c3c2)c1F [Example 121, N-(3-(azetidin-3-yl)-1H-pyrazolo [3,4-b]pyridin-5-yl)-2,6-difluoro-3-(propylsulfonamido) benzamide]
IC50: < 1 µM

COc1n[nH]c2ncc(NC(=O)c3cccc(NS(=O)(=O)CCCF)c3F)cc12 [Example 47, 2-fluoro-3-(3-fluoropropylsulfonamido)-N-(3-methoxy-1H-pyrazolo[3,4-b]pyridin-5-yl)benzamide]
IC50: < 1 µM

COc1n[nH]c2ncc(NC(=O)c3c(F)ccc(NS(=O)(=O)NC(C)C)c3F)cc12 [Example 145, 2,6-difluoro-3-(N-isopropylsulfamoylamino)-N-(3-methoxy-1H-pyrazolo[3,4-b]pyridin-5-yl)benzamide]
IC50: < 1 µM

CCCS(=O)(=O)Nc1ccc(F)c(C(=O)Nc2cnc3[nH]nc(SCC)c3c2)c1F [Example 119, N-(3-(ethylthio)-1H-pyrazolo [3,4-b]pyridin-5-yl)-2,6-difluoro-3-(propylsulfonamido)benzamide]
IC50: < 1 µM

COc1n[nH]c2ncc(NC(=O)c3c(F)ccc(NS(=O)(=O)c4cc(F)ccc4F)c3F)cc12 [Example 139, 3-(2,5-difluorophenylsulfonamido)-2,6-difluoro-N-(3-methoxy-1H-pyrazolo[3,4-b]pyridin-5-yl)benzamide]
IC50: < 1 µM

COc1n[nH]c2ncc(NC(=O)c3c(Cl)ccc(NS(=O)(=O)CCCF)c3F)cc12 [Example 46, 6-chloro-2-fluoro-3-(3-fluoropropylsulfonamido)-N-(3-methoxy-1H-pyrazolo[3,4-b]pyridin-5-yl)benzamide]
IC50: < 1 µM

CCCS(=O)(=O)Nc1ccc(F)c(C(=O)Nc2cnc3[nH]nc(C(F)(F)F)c3c2)c1F [Example 11, 2,6-difluoro-3-(propylsulfonamido)-N-(3-(trifluoromethyl)-1H-pyrazolo[3,4-b]pyridin-5-yl)benzamide]
IC50: < 1 µM

CCCS(=O)(=O)Nc1ccc(F)c(C(=O)Nc2cnc3[nH]nc(N(C)C)c3c2)c1F [Example 19, N-(3-(dimethylamino)-1H-pyrazolo[3,4-b]pyridin-5-yl)-2,6-difluoro-3-(propylsulfonamido)benzamide]
IC50: < 1 µM

CC(C)Oc1n[nH]c2ncc(NC(=O)c3c(F)ccc(NS(=O)(=O)CCCF)c3F)cc12 [Example 127, 2,6-difluoro-3-(3-fluoropropylsulfonamido)-N-(3-isopropoxy-1H-pyrazolo[3,4-b]pyridin-5-yl)benzamide]
IC50: < 1 µM

C=Cc1n[nH]c2ncc(NC(=O)c3c(F)ccc(NS(=O)(=O)CCC)c3F)cc12 [Example 36, 2,6-difluoro-3-(propylsulfonamido)-N-(3-vinyl-1H-pyrazolo[3,4-b]pyridin-5-yl) benzamide]
IC50: < 1 µM

CCCS(=O)(=O)Nc1ccc(Cl)c(C(=O)Nc2cnc3[nH]nc(OCCO)c3c2)c1F [Example 89, 6-chloro-2-fluoro-N-(3-(2-hydroxyethoxy)-1H-pyrazolo[3,4-b]pyridin-5-yl)-3-(propylsulfonamido)benzamide]
IC50: < 1 µM

CCS(=O)(=O)Nc1ccc(Cl)c(C(=O)Nc2cnc3[nH]ncc3c2)c1F [Example 144, 6-chloro-3-(ethylsulfonamido)-2-fluoro-N-(1H-pyrazolo[3,4-b]pyridin-5-yl)benzamide]
IC50: < 1 µM

CCCS(=O)(=O)Nc1ccc(F)c(C(=O)Nc2cnc3[nH]nc(C4CCOC4)c3c2)c1F (stereo not drawn) [Example 66, 2,6-difluoro-3-(propylsulfonamido)-N-(3-(tetrahydrofuran-3-yl)-1H-pyrazolo[3,4-b]pyridin-5-yl)benzamide]
IC50: < 1 µM

CSc1n[nH]c2ncc(NC(=O)c3c(F)ccc(NS(=O)(=O)CCCF)c3F)cc12 [Example 120, 2,6-difluoro-3-(3-fluoropropylsulfonamido)-N-(3-(methylthio)-1H-pyrazolo[3,4-b]pyridin-5-yl)benzamide]
IC50: < 1 µM
